Reference: PubChem BioAssay AID1259254 (NCATS, 2017)
Shown is a random part of about 59,000 reagents tested. In the full data, about 1,550 (2.6%) were called active. 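G2 share is only a proxy for re-replication; each gene was hit by three separate siRNAs, and active genes were retested.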 Raw values are not corrected between plates. The numbers tell different reagents against one gene apart. No sequences are given here. Not stated in the record: the amount of reagent.

- Assay: 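Gene knock-downs that lead to re-replication, shown by excess G2 DNA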 (primary screen)
- Cells: human HCT116 colorectal cancer cells
- Reagents: single siRNA against human genes
- Time to read-out: 3 days
- Measurement: 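Imaged Hoechst DNA stain sorts each cell into a cycle phase by DNA amount; per plate, G2 fraction set to 0% for non-targeting and 100% for GMNN siRNA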
- Direction: G2 robust z-score and G2 cells, % of GMNN control: higher = more G2 cells, more excess DNA replication; raw share of cells in G2: higher = larger share of cells with G2 DNA content
- Rule for the call: 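An siRNA counts as active if its G2 robust z-score lies at least 5 MADs above the screen median; here such calls match roughly 38% of GMNN control or more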

target gene,reagent no.,G2 robust z-score,"G2 cells, % of GMNN control",raw share of cells in G2 (%),call
POPDC1 (popeye domain cAMP effector 1),1,3.21,25.5,15,inactive
POPDC1 (popeye domain cAMP effector 1),2,-0.188,1.64,4.81,inactive
POPDC1 (popeye domain cAMP effector 1),3,-0.0919,2.32,4.04,inactive
OXLD1 (oxidoreductase like domain containing 1),1,1.46,13.2,9.05,inactive
OXLD1 (oxidoreductase like domain containing 1),2,-1.2,-5.45,2,inactive
OXLD1 (oxidoreductase like domain containing 1),3,-0.938,-3.63,2.74,inactive
H3-3B (H3.3 histone B),1,0.275,4.9,5.44,inactive
H3-3B (H3.3 histone B),2,4.44,34.2,21.3,inactive
H3-3B (H3.3 histone B),3,0.947,9.63,7.61,inactive
PDHA2 (pyruvate dehydrogenase E1 subunit alpha 2),1,0.859,9.01,7.72,inactive
PDHA2 (pyruvate dehydrogenase E1 subunit alpha 2),2,-0.521,-0.701,3.29,inactive
PDHA2 (pyruvate dehydrogenase E1 subunit alpha 2),3,-0.364,0.409,4.43,inactive
ZNF763 (zinc finger protein 763),1,-1.07,-4.59,1.51,inactive
ZNF763 (zinc finger protein 763),2,1.74,15.2,8.44,inactive
ZNF763 (zinc finger protein 763),3,-0.794,-2.62,2.61,inactive
FIBIN (fin bud initiation factor homolog),1,-0.109,2.2,4.53,inactive
FIBIN (fin bud initiation factor homolog),2,0.131,3.89,5.1,inactive
FIBIN (fin bud initiation factor homolog),3,0.988,9.92,8.89,inactive
ZNF318 (zinc finger protein 318),1,-0.882,-3.24,3.2,inactive
ZNF318 (zinc finger protein 318),2,0.741,8.18,7.48,inactive
ZNF318 (zinc finger protein 318),3,-0.0891,2.34,4.12,inactive
RALY (RALY heterogeneous nuclear ribonucleoprotein),1,0.649,7.53,6.68,inactive
RALY (RALY heterogeneous nuclear ribonucleoprotein),2,-0.505,-0.584,3.67,inactive
RALY (RALY heterogeneous nuclear ribonucleoprotein),3,-0.763,-2.4,5.4,inactive
SF3A2P1 (SF3A2 pseudogene 1),1,-0.495,-0.516,3.03,inactive
SF3A2P1 (SF3A2 pseudogene 1),2,0.0602,3.39,4.12,inactive
SF3A2P1 (SF3A2 pseudogene 1),3,0.219,4.51,5.48,inactive
PSG1 (pregnancy specific beta-1-glycoprotein 1),1,-0.537,-0.813,4.63,inactive
PSG1 (pregnancy specific beta-1-glycoprotein 1),2,-0.598,-1.24,3.73,inactive
PSG1 (pregnancy specific beta-1-glycoprotein 1),3,1.11,10.8,7.24,inactive
EI24 (EI24 autophagy associated transmembrane protein),1,-0.63,-1.47,4.67,inactive
EI24 (EI24 autophagy associated transmembrane protein),2,-0.381,0.283,4.06,inactive
EI24 (EI24 autophagy associated transmembrane protein),3,-0.533,-0.781,3.12,inactive
RPL14P1 (ribosomal protein L14 pseudogene 1),1,2.82,22.8,11.6,inactive
RPL14P1 (ribosomal protein L14 pseudogene 1),2,1.83,15.9,7.48,inactive
RPL14P1 (ribosomal protein L14 pseudogene 1),3,0.996,9.98,7.67,inactive
ALOX5AP (arachidonate 5-lipoxygenase activating protein),1,-0.67,-1.75,3.34,inactive
ALOX5AP (arachidonate 5-lipoxygenase activating protein),2,0.0151,3.07,5.77,inactive
ALOX5AP (arachidonate 5-lipoxygenase activating protein),3,1.28,12,9.34,inactive
CNR2 (cannabinoid receptor 2),1,1.48,13.4,10.6,inactive
CNR2 (cannabinoid receptor 2),2,0.677,7.73,7.22,inactive
CNR2 (cannabinoid receptor 2),3,3.44,27.2,11.6,inactive

Already shown: an excerpt of the list.
target gene,reagent no.,G2 robust z-score,"G2 cells, % of GMNN control",raw share of cells in G2 (%),call
RPL14P1 (ribosomal protein L14 pseudogene 1),1,2.82,22.8,11.6,inactive
RPL14P1 (ribosomal protein L14 pseudogene 1),2,1.83,15.9,7.48,inactive
RPL14P1 (ribosomal protein L14 pseudogene 1),3,0.996,9.98,7.67,inactive
ALOX5AP (arachidonate 5-lipoxygenase activating protein),1,-0.67,-1.75,3.34,inactive

Additional reagents follow:
target gene,reagent no.,G2 robust z-score,"G2 cells, % of GMNN control",raw share of cells in G2 (%),call
PTP4A1 (protein tyrosine phosphatase 4A1),1,1.26,11.8,8.64,inactive
PTP4A1 (protein tyrosine phosphatase 4A1),2,-1.22,-5.59,2.62,inactive
PTP4A1 (protein tyrosine phosphatase 4A1),3,-0.439,-0.123,3.46,inactive
ARHGAP17 (Rho GTPase activating protein 17),1,-1.13,-5,4.24,inactive
ARHGAP17 (Rho GTPase activating protein 17),2,0.925,9.47,7.83,inactive
ARHGAP17 (Rho GTPase activating protein 17),3,1.96,16.8,11.3,inactive
LRCH2,1,-0.218,1.43,4.91,inactive
LRCH2,2,-0.27,1.07,4.97,inactive
LRCH2,3,-0.458,-0.257,2.95,inactive
BCL2L10 (BCL2 like 10),1,2.14,18,12.1,inactive
BCL2L10 (BCL2 like 10),2,-0.861,-3.09,2.14,inactive
BCL2L10 (BCL2 like 10),3,-0.766,-2.42,4.29,inactive
FPR3 (formyl peptide receptor 3),1,-0.278,1.01,6.21,inactive
FPR3 (formyl peptide receptor 3),2,-0.889,-3.29,3.37,inactive
FPR3 (formyl peptide receptor 3),3,3.36,26.6,11.4,inactive
TFAP2D (transcription factor AP-2 delta),1,-0.859,-3.08,4.52,inactive
TFAP2D (transcription factor AP-2 delta),2,-0.0332,2.73,3.76,inactive
TFAP2D (transcription factor AP-2 delta),3,-0.623,-1.41,3.19,inactive
CCDC185 (coiled-coil domain containing 185),1,0.617,7.31,6.22,inactive
CCDC185 (coiled-coil domain containing 185),2,0.411,5.86,4.92,inactive
CCDC185 (coiled-coil domain containing 185),3,-0.692,-1.9,2.16,inactive
TMEM82 (transmembrane protein 82),1,-0.597,-1.23,3.35,inactive
TMEM82 (transmembrane protein 82),2,-0.253,1.19,3.92,inactive
TMEM82 (transmembrane protein 82),3,1.26,11.8,9.7,inactive
ETFBKMT,1,0.574,7,5.43,inactive
ETFBKMT,2,-0.776,-2.49,2.67,inactive
ETFBKMT,3,-0.642,-1.55,2.6,inactive
